Among all 400,000 compounds or so, about 13,000 (3.2%) were called active. Inconclusive means that the source gave no clear call. Such entries were picked first, then a sample of the others. Calls come from the whole dose curve; as a rule, active = well fitted cell-killing curve with a large enough effect; inconclusive = small, poorly fitted or top-dose-only effect, or effect the other way; inactive = flat fitted curve, though single readings scatter. Potencies of inconclusive entries are doubtful fits and often do not repeat.
Assay: qHTS assay for MDR1-selective chemotherapeutics: Primary screen using the drug-selected MDR subline cells KB-V1; note: nearly all actives have a fitted effect of over 60% in size
Settings: KB-V1 MDR cells viability, CellTiter-Glo, 72 h; activity change, negative = cytotoxicity: at 46.1 µM (top of the series)
How it was run: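 Cells of the MDR subline KB-V1 are plated, dosed with compound at multiple concentrations, and incubated 72 h at 37 degrees C; CellTiter-Glo is then added and luminescence read after 10 min.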
% is set by controls: 0 for no effect and ±100 for the full control effect; potency is the fitted concentration of half-maximal effect.

Row | Compound | Potency | activity change, negative = cytotoxicity
1 | CCn1c(COc2ccccc2C)nnc1SCC(=O)N1CCN(c2ccccc2)CC1 | active: 8.2 µM | 
2 | COc1ccc(S(=O)(=O)N2CCCC2C(=O)NCC(=O)Nc2cccc(Cl)c2C)cc1 (configuration not stated) | inconclusive: 9.2 µM [cytotoxic, partial curve, poor fit] | 
3 | COc1cc(NS(=O)(=O)c2cccs2)cc(OC)c1 | inconclusive: 6.51 µM [rising, full curve] | 
4 | CN(CC(=O)Nc1ccc(S(=O)(=O)N2CCCC2)cc1)CC(=O)Nc1ccc(F)c(F)c1F | inconclusive: 10.3 µM [cytotoxic, partial curve] | 
5 | COc1ccc2cc(C(=O)NCc3ccccc3)c(=Nc3ccc(C(=O)O)cc3)oc2c1 | inactive | 
6 | CN(C)CCNC(=O)c1cccc(-c2cnc3c(NC=O)cc(/C=C/c4ccccc4)cn23)c1 | inconclusive: 23.1 µM [cytotoxic, single point] | 
7 | NNc1nc(N)c2c(n1)-c1ccccc1CC21CCCC1 | inactive | 
8 | COCCn1c(SCCCC(=O)c2ccc(Br)cc2)nnc1-c1ccncc1 | active: 2.59 µM | 
9 | O=C(NC(=S)NCc1cccnc1)c1cc(Br)ccc1Cl | inconclusive: 20.6 µM [cytotoxic, single point] | 
10 | Cc1cc(C)c(OCC(=O)Nc2cccc(-c3nc4ncccc4o3)c2)c(Br)c1 | inconclusive: 23.1 µM [cytotoxic, partial curve, poor fit] | 
11 | CCC(C)NC(=S)N(CCc1ccccc1)Cc1cc2cc(OC)c(OC)cc2[nH]c1=O (configuration not stated) | inconclusive: 11.6 µM [cytotoxic, partial curve, poor fit] | 
12 | CN(C)c1ccc(C=C(c2nnnn2-c2ccccc2)c2nnnn2-c2ccccc2)cc1 | inconclusive: 18.4 µM [cytotoxic, single point] | 
13 | COc1ccc(S(=O)(=O)N2CCOCC2)cc1NC(=O)/C=C/c1ccc(F)cc1 | inactive | 
14 | CN(C)CCNC=C(C(=O)Nc1ccc(Cl)cc1Cl)C(=O)Nc1ccc(Cl)cc1Cl | inconclusive: 14.6 µM [cytotoxic, partial curve, poor fit] | 
15 | O=C(COC(=O)Cn1cnc2ccccc2c1=O)NNC(=O)c1ccc(Br)cc1 | inconclusive: 25.9 µM [rising, single point] | 
16 | Cc1cccc2cc(CN(CCN3CCOCC3)C(=O)Nc3ccccc3F)c(=O)[nH]c12 | inactive | 
17 | O=C(Oc1nsnc1N1CCOCC1)N(c1ccccc1)c1ccccc1 | inconclusive: 16.4 µM [cytotoxic, partial curve, poor fit] | 
18 | COc1ccc(S(=O)(=O)N2CCC(C(=O)NCc3ccncc3)CC2)cc1 | inconclusive: 23.1 µM [rising, single point] | 
19 | CSc1ccc(CNc2nc3ccccc3n3cnnc23)cc1 | inactive | 
20 | Cc1c(C(=O)N2CCCCCC2(C)C(=O)NCC(C)C)oc2ccccc12 (configuration not stated) | inconclusive: 29.1 µM [cytotoxic, single point] | 
21 | COc1cc(/C=C2\C(=N)N3N=C(C)SC3=NC2=O)cc(Cl)c1OCCOc1ccc(NC(C)=O)cc1 | inactive | 
22 | COc1cccc(CNC(=O)c2ccc(CS(=O)c3ccccc3)o2)c1 (configuration not stated) | inactive | 
23 | O=C(CCNS(=O)(=O)c1ccc(Br)cc1)NC1CCN(Cc2ccccc2)CC1 | inconclusive: 18.4 µM [cytotoxic, single point] | 
24 | CCCCN(C)c1c(C)nc2ccc(C(=O)N(CC)CCN(C)C)cn12 | inactive | 

Row | Compound | Potency | activity change, negative = cytotoxicity
25 | COc1ccc(C(C)(O)c2nc(-c3ccc(Cl)cc3)cs2)cc1 (configuration not stated) | inconclusive: 29.1 µM [cytotoxic, single point] | 
26 | CCOc1ccc(C(CCc2ccccc2)NC(=O)c2ccccc2F)cc1OCC (configuration not stated) | inconclusive: 7.08 µM [cytotoxic, full curve] | 
27 | COc1ccc(NC(=O)c2c(C)oc3ccc(O)c(CN4CCCC(C)C4)c23)cc1 (configuration not stated) | inactive | 
28 | CCOC(=O)C1=C(c2ccccc2)OC(N)=C(C#N)C1C(C)C (configuration not stated) | inactive | 
29 | COc1ccc(Nc2ncnc3ccc([N+](=O)[O-])cc23)c(OC)c1 | inconclusive: 20.6 µM [cytotoxic, single point] | 
30 | Cc1cc(S(=O)(=O)NCc2ccccc2)ccc1OCC(=O)Nc1cccc([N+](=O)[O-])c1 | active: 13 µM | 
31 | O=C(O)Cn1nc(-c2ccc(Cl)cc2)ccc1=O | inactive | 
32 | Cc1ccc(-c2nc(NCCN(C)C)c3ccccc3n2)cc1 | inconclusive: 29.1 µM [cytotoxic, single point] | 
33 | CCOC(=O)N1CCN(C(=O)c2cnn(-c3cccc(F)c3)c2-n2cccc2)CC1 | inactive | 
34 | CCc1ccccc1NC(=O)C(CCSC)NS(=O)(=O)c1ccc2c(c1)oc(=O)n2C (configuration not stated) | inconclusive: 9.2 µM [rising, partial curve, poor fit] | 
35 | CS(=O)(=O)N(CC(=O)O)c1cc(C(F)(F)F)ccc1Cl | inconclusive: 13 µM [rising, partial curve] | 
36 | CCOC(=O)COc1ccc(S(=O)(=O)N2CCN(c3ccc(OC)cc3)CC2)cc1 | inactive | 
37 | COc1ccccc1-c1cnc(C(O)c2ccc(F)c(F)c2)[nH]1 (configuration not stated) | inconclusive: 25.9 µM [cytotoxic, single point] | 
38 | Cc1ccccc1CN(C)C(=O)c1ccc2ccccc2n1 | inactive | 
39 | CCOCCCn1c(=NC(C)=O)c(C#N)cc2c(=O)n3cccc(C)c3nc21 | inconclusive: 0.58 µM [cytotoxic, full curve, poor fit] | 
40 | CC1(c2ccc3c(c2)OCCO3)NC(=O)N(CC(=O)Nc2c(F)cccc2F)C1=O (configuration not stated) | inactive | 
41 | Cc1ccc(NC(=O)Cn2c(=O)nc(-c3ccccc3F)c3cc(Cl)ccc32)c(Br)c1 | inconclusive: 23.1 µM [cytotoxic, single point] | 
42 | Cc1cc(C)cc(NC(=O)CCNS(=O)(=O)c2ccc3c(c2)oc(=O)n3C)c1 | inconclusive: 29.1 µM [cytotoxic, single point] | 
43 | O=C1c2cccc3cc(Br)cc(c23)C(=O)N1Nc1ccccc1 | inconclusive: 32.6 µM [cytotoxic, single point] | 
44 | COC(=O)c1cc(S(=O)(=O)Nc2c(C)cccc2C)cn1C | inactive | 
45 | CCCOc1ccc(C(=O)NNC(=S)NC(=O)CC)cc1 | inconclusive: 1.46 µM [cytotoxic, full curve, poor fit] | 
46 | O=C(CSc1nc(O)cc(=O)n1-c1ccccc1)N1CCCCC1 | inconclusive: 11.6 µM [rising, partial curve, poor fit] | 
47 | O=C1COc2ccc(S(=O)(=O)CCC(=O)NC3CCCCC3)cc2N1 | inactive | 
48 | CCN1C(=O)CC(c2ccco2)Sc2ccccc21 (configuration not stated) | inconclusive: 32.6 µM [cytotoxic, single point] | 

Record cards, from the list above.
CCOC(=O)N1CCN(C(=O)c2cnn(-c3cccc(F)c3)c2-n2cccc2)CC1 is listed as Potency: inactive
O=C(CSc1nc(O)cc(=O)n1-c1ccccc1)N1CCCCC1 is listed as Potency: inconclusive: 11.6 µM [rising, partial curve, poor fit]
COc1ccc(Nc2ncnc3ccc([N+](=O)[O-])cc23)c(OC)c1 is listed as Potency: inconclusive: 20.6 µM [cytotoxic, single point]

More results

Row | Compound | Potency | activity change, negative = cytotoxicity
49 | CCC(C)n1c(=N)c(S(=O)(=O)c2ccccc2)cc2c(=O)n3ccccc3nc21 (configuration not stated) | inconclusive: 18.4 µM [cytotoxic, partial curve] | 
50 | NNc1nc2c(-c3ccc(F)cc3)nnn2c2ccccc12 | inactive | 
51 | CN(Cc1ccccc1F)C(=O)COc1ccc(C(=O)c2ccccc2)cc1 | inactive | 
52 | CCCc1nc(SCC(=O)Nc2nnc(CC)s2)c2c(C)c(C)sc2n1 | inconclusive: 23.1 µM [cytotoxic, partial curve] | 
53 | COc1ccccc1NC(=O)NNC(=O)c1cc2ccccc2cc1O | inactive | 
54 | O=C(Cn1c2ccccc2c2nc3n(c(=O)c21)CCS3)Nc1ccccc1C(F)(F)F | inconclusive: 1.3 µM [cytotoxic, partial curve, poor fit] | 
55 | CCOC(=O)/C(N=Nc1c(Br)cc(Br)cc1Br)=C(\C)O | inconclusive: 25.9 µM [cytotoxic, single point] | 
56 | COc1ccc(CNC(=S)Nc2ccc(F)c(Cl)c2)cc1 | inconclusive: 16.4 µM [cytotoxic, single point] | 
57 | CCO[C@H]1OC(C(=O)NCc2nc3ccccc3[nH]2)=C[C@@H](C2CC2)[C@@H]1CCCO | inactive | 
58 | Cc1c(C(=O)N/N=C/c2c(O)ccc3ccccc23)nnn1-c1nonc1N | inactive | 
59 | CSc1ccccc1NC(=O)c1cnccn1 | inconclusive: 29.1 µM [cytotoxic, single point] | 
60 | COc1ccc(CC(=O)NNC(=S)NC(=O)c2cc(OC)c(OC)c(OC)c2)cc1 | inconclusive: 4.61 µM [cytotoxic, full curve] | 
61 | C[C@@H]1CC2OC(=O)[C@@]3(C)C(=O)CC[C@@](C)(C23)[C@@]1(O)CCc1ccoc1 (some centres not stated) | inactive | 
62 | O=C(O)c1ccc2c(c1)C(=O)N(Cc1ccccc1)C2=O | inconclusive: 16.4 µM [rising, single point] | 
63 | c1ccc(CCNc2ccnc3cc4ccccc4cc23)cc1 | active: 8.2 µM | 
64 | COc1ccc(C2c3ccc4ccccc4c3Oc3ncn(CCN(C)C)c(=N)c32)cc1 (configuration not stated) | inconclusive: 29.1 µM [cytotoxic, single point] | 
65 | O=C1C(=O)C(Cl)=C(Cl)C(Cl)=C1Cl | inactive | 
66 | CC(C)(C)NC(=O)C(c1ccc(F)cc1)N(Cc1cccs1)C(=O)c1ccc(CN2CCOCC2)o1 (configuration not stated) |  | inconclusive: -33.7% [cytotoxic]
67 | CCCCCNCC(=O)Nc1cccc(C(=O)Nc2cccc(C(F)(F)F)c2)c1 | active: 23.1 µM | 
68 | CCOC(=O)c1cnc(-n2nc(C)cc2C)nc1NC(C)c1ccccc1 (configuration not stated) | active: 1.03 µM | 
69 | COc1ccc(CCCc2nnc(SCC(=O)Nc3ccc(C)c(C)c3)o2)cc1 | inactive | 
70 | C=CCSc1nc2sc(-c3ccccc3)cc2c(=O)n1N | inconclusive: 0.461 µM [cytotoxic, full curve, poor fit] | 
71 | COc1ccc(C(=O)N/C(=C/c2cccnc2)C(=O)N2CCOCC2)cc1OC | inconclusive: 32.6 µM [rising, single point] | 
72 | CCC(Sc1nc(C)cc(=O)[nH]1)C(=O)Nc1sc2c(c1C#N)CCCC2 (configuration not stated) | inconclusive: 20.6 µM [cytotoxic, single point] | 

— PubChem BioAssay AID1347076 (National Center for Advancing Translational Sciences (NCATS), 2019)
